{
  "source": "paper PMC10796436",
  "about": "“Peptidyl nitroalkene inhibitors of main protease rationalized by computational and crystallographic investigations as antivirals against SARS-CoV-2” (Communications Chemistry, 2024)",
  "target": "M^pro (Severe acute respiratory syndrome coronavirus 2, UniProt P0DTD1)",
  "format": "biochemical",
  "conditions": "triplicate wells",
  "method": "Buffer: 20 mM Tris, 0.1 mM EDTA, 1 mM DTT, 200 mM NaCl pH = 7.5. For the dilution assay Nirmatrelvir[21] was used as a reversible control and LM188[54] as an irreversible control (Fig. 10).\nThe incubation was done at RT for 30 min in assay buffer. DMSO was used as a control. After incubation the Enzyme/Inhibitor (or DMSO) mixtures were diluted 100-fold in assay buffer.\nThe preincubation was done in assay buffer (20 mM Tris, 0.1 mM EDTA, 1 mM DTT, 200 mM NaCl, pH = 7.5), at RT for 30 min. After incubation the mixtures were diluted […]\nproteolytic activity of the enzyme was measured as described for the enzymatic assays using the […]\nactivity was measured over 1 h.\nInhibition assay58. Trypsin: Enzyme: bovine trypsin purchased from Sigma-Aldrich (St. Louis, […]\nSubstrate: Cbz-FR-AMC purchased from Bachem (Bubendorf, Switzerland), [Substrate]: 40 µM […]\nThe activity against bovine trypsin was tested at 20 µM inhibitor concentration. […]",
  "note": "Several values for one entry are separate records, joined by “and”; a condition that tells them apart may be missing. Identical values can stand only once. Like-named read-outs stand apart in the source and are kept apart here. Further values from the same series stand in other lists.",
  "data": [
    {"compound": "COc1cccc2[nH]c(C(=O)N[C@@H](CC(C)C)C(=O)N[C@H](/C=C/S(=O)(=O)c3ccccc3)C[C@@H]3CCNC3=O)cc12", "note": "[LM188, reference compound]", "values": [
      {"measurement": "Fluorescence reading (progress curve)", "setting": "Time 0 s", "value": "258 and 243 and 247"},
      {"measurement": "Fluorescence reading (progress curve)", "setting": "Time 30.009 s", "value": "258 and 247 and 250"},
      {"measurement": "Fluorescence reading (progress curve)", "setting": "Time 60.029 s", "value": "253 and 248"},
      {"measurement": "Fluorescence reading (progress curve)", "setting": "Time 90.04 s", "value": "257 and 248 and 252"},
      {"measurement": "Fluorescence reading (progress curve)", "setting": "Time 120.057 s", "value": "254 and 248 and 250"},
      {"measurement": "Fluorescence reading (progress curve)", "setting": "Time 150.063 s", "value": "254 and 244 and 250"},
      {"measurement": "Fluorescence reading (progress curve)", "setting": "Time 480.18 s", "value": 248},
      {"measurement": "Fluorescence reading (progress curve)", "setting": "Time 510.193 s", "value": "253 and 244 and 250"},
      {"measurement": "Fluorescence reading (progress curve)", "setting": "Time 540.2 s", "value": "250 and 246"},
      {"measurement": "Fluorescence reading (progress curve)", "setting": "Time 570.216 s", "value": "253 and 244"},
      {"measurement": "Fluorescence reading (progress curve)", "setting": "Time 600.232 s", "value": "252 and 246 and 245"},
      {"measurement": "Fluorescence reading (progress curve)", "setting": "Time 630.25 s", "value": "253 and 242 and 246"},
      {"measurement": "Fluorescence reading (progress curve)", "setting": "Time 660.257 s", "value": "250 and 244 and 246"},
      {"measurement": "Fluorescence reading (progress curve)", "setting": "Time 690.266 s", "value": "252 and 245 and 248"},
      {"measurement": "Fluorescence reading (progress curve)", "setting": "Time 720.275 s", "value": "255 and 242 and 244"},
      {"measurement": "Fluorescence reading (progress curve)", "setting": "Time 750.289 s", "value": "255 and 243 and 248"},
      {"measurement": "Fluorescence reading (progress curve)", "setting": "Time 780.305 s", "value": "249 and 242 and 246"},
      {"measurement": "Fluorescence reading (progress curve)", "setting": "Time 810.312 s", "value": "254 and 240 and 244"},
      {"measurement": "Fluorescence reading (progress curve)", "setting": "Time 840.326 s", "value": "254 and 240 and 244"},
      {"measurement": "Fluorescence reading (progress curve)", "setting": "Time 870.344 s", "value": "254 and 242 and 244"},
      {"measurement": "Fluorescence reading (progress curve)", "setting": "Time 900.356 s", "value": "255 and 242 and 245"},
      {"measurement": "Fluorescence reading (progress curve)", "setting": "Time 930.361 s", "value": "256 and 239 and 245"},
      {"measurement": "Fluorescence reading (progress curve)", "setting": "Time 960.372 s", "value": "254 and 242 and 247"},
      {"measurement": "Fluorescence reading (progress curve)", "setting": "Time 990.388 s", "value": "250 and 243 and 244"},
      {"measurement": "Fluorescence reading (progress curve)", "setting": "Time 1020.4 s", "value": "255 and 239 and 241"},
      {"measurement": "Fluorescence reading (progress curve)", "setting": "Time 1050.42 s", "value": "256 and 241 and 242"},
      {"measurement": "Fluorescence reading (progress curve)", "setting": "Time 1080.42 s", "value": "251 and 238 and 243"},
      {"measurement": "Fluorescence reading (progress curve)", "setting": "Time 1110.44 s", "value": "252 and 237 and 242"},
      {"measurement": "Fluorescence reading (progress curve)", "setting": "Time 1140.45 s", "value": "253 and 237 and 243"},
      {"measurement": "Fluorescence reading (progress curve)", "setting": "Time 1170.46 s", "value": "254 and 239 and 241"},
      {"measurement": "Fluorescence reading (progress curve)", "setting": "Time 1200.47 s", "value": "253 and 238 and 240"},
      {"measurement": "Fluorescence reading (progress curve)", "setting": "Time 1230.49 s", "value": "254 and 239 and 243"},
      {"measurement": "Fluorescence reading (progress curve)", "setting": "Time 1260.5 s", "value": "252 and 239 and 242"},
      {"measurement": "Fluorescence reading (progress curve)", "setting": "Time 1290.52 s", "value": "252 and 238 and 239"},
      {"measurement": "Fluorescence reading (progress curve)", "setting": "Time 1320.53 s", "value": "249 and 235 and 241"},
      {"measurement": "Fluorescence reading (progress curve)", "setting": "Time 1350.55 s", "value": "255 and 237 and 243"},
      {"measurement": "Fluorescence reading (progress curve)", "setting": "Time 1380.55 s", "value": "254 and 235 and 241"},
      {"measurement": "Fluorescence reading (progress curve)", "setting": "Time 1410.56 s", "value": "254 and 236 and 241"},
      {"measurement": "Fluorescence reading (progress curve)", "setting": "Time 1440.57 s", "value": "252 and 233 and 241"},
      {"measurement": "Fluorescence reading (progress curve)", "setting": "Time 1470.58 s", "value": "251 and 238 and 239"},
      {"measurement": "Fluorescence reading (progress curve)", "setting": "Time 1500.6 s", "value": "253 and 235 and 240"},
      {"measurement": "Fluorescence reading (progress curve)", "setting": "Time 1530.61 s", "value": "253 and 236 and 241"},
      {"measurement": "Fluorescence reading (progress curve)", "setting": "Time 1560.62 s", "value": "251 and 235 and 243"},
      {"measurement": "Fluorescence reading (progress curve)", "setting": "Time 1590.64 s", "value": "254 and 238 and 240"},
      {"measurement": "Fluorescence reading (progress curve)", "setting": "Time 1620.64 s", "value": "254 and 235 and 238"},
      {"measurement": "Fluorescence reading (progress curve)", "setting": "Time 1650.65 s", "value": "250 and 235 and 241"},
      {"measurement": "Fluorescence reading (progress curve)", "setting": "Time 1680.66 s", "value": "254 and 233 and 241"},
      {"measurement": "Fluorescence reading (progress curve)", "setting": "Time 1710.68 s", "value": "254 and 234 and 238"},
      {"measurement": "Fluorescence reading (progress curve)", "setting": "Time 1740.69 s", "value": "254 and 237 and 238"},
      {"measurement": "Fluorescence reading (progress curve)", "setting": "Time 1770.7 s", "value": "253 and 235 and 240"},
      {"measurement": "Fluorescence reading (progress curve)", "setting": "Time 1800.72 s", "value": "254 and 232 and 240"},
      {"measurement": "Fluorescence reading (progress curve)", "setting": "Time 1830.73 s", "value": "252 and 232 and 238"},
      {"measurement": "Fluorescence reading (progress curve)", "setting": "Time 1860.74 s", "value": "249 and 231 and 241"},
      {"measurement": "Fluorescence reading (progress curve)", "setting": "Time 1890.75 s", "value": "254 and 230 and 241"},
      {"measurement": "Fluorescence reading (progress curve)", "setting": "Time 1920.77 s", "value": "251 and 230 and 237"},
      {"measurement": "Fluorescence reading (progress curve)", "setting": "Time 1950.78 s", "value": "250 and 233 and 239"},
      {"measurement": "Fluorescence reading (progress curve)", "setting": "Time 1980.8 s", "value": "251 and 230 and 240"},
      {"measurement": "Fluorescence reading (progress curve)", "setting": "Time 2010.81 s", "value": "255 and 231 and 237"},
      {"measurement": "Fluorescence reading (progress curve)", "setting": "Time 2040.83 s", "value": "251 and 230 and 238"},
      {"measurement": "Fluorescence reading (progress curve)", "setting": "Time 2070.84 s", "value": "250 and 231 and 236"},
      {"measurement": "Fluorescence reading (progress curve)", "setting": "Time 2100.86 s", "value": "251 and 228 and 238"},
      {"measurement": "Fluorescence reading (progress curve)", "setting": "Time 2130.86 s", "value": "248 and 230 and 238"},
      {"measurement": "Fluorescence reading (progress curve)", "setting": "Time 2160.87 s", "value": "250 and 229 and 238"},
      {"measurement": "Fluorescence reading (progress curve)", "setting": "Time 2190.89 s", "value": "254 and 228 and 241"},
      {"measurement": "Fluorescence reading (progress curve)", "setting": "Time 2220.91 s", "value": "253 and 230 and 237"},
      {"measurement": "Fluorescence reading (progress curve)", "setting": "Time 2250.92 s", "value": "252 and 227 and 237"},
      {"measurement": "Fluorescence reading (progress curve)", "setting": "Time 2280.93 s", "value": "252 and 227 and 235"},
      {"measurement": "Fluorescence reading (progress curve)", "setting": "Time 2310.95 s", "value": "255 and 227 and 236"},
      {"measurement": "Fluorescence reading (progress curve)", "setting": "Time 2340.96 s", "value": "253 and 225 and 239"},
      {"measurement": "Fluorescence reading (progress curve)", "setting": "Time 2370.96 s", "value": "252 and 226 and 240"},
      {"measurement": "Fluorescence reading (progress curve)", "setting": "Time 2400.97 s", "value": "251 and 226 and 236"},
      {"measurement": "Fluorescence reading (progress curve)", "setting": "Time 2430.99 s", "value": "250 and 227 and 240"},
      {"measurement": "Fluorescence reading (progress curve)", "setting": "Time 2461.01 s", "value": "251 and 228 and 236"},
      {"measurement": "Fluorescence reading (progress curve)", "setting": "Time 2491.03 s", "value": "250 and 227 and 234"},
      {"measurement": "Fluorescence reading (progress curve)", "setting": "Time 2521.03 s", "value": "249 and 226 and 236"},
      {"measurement": "Fluorescence reading (progress curve)", "setting": "Time 2551.05 s", "value": "250 and 225 and 237"},
      {"measurement": "Fluorescence reading (progress curve)", "setting": "Time 2581.07 s", "value": "253 and 227 and 237"},
      {"measurement": "Fluorescence reading (progress curve)", "setting": "Time 2611.08 s", "value": "249 and 223 and 234"},
      {"measurement": "Fluorescence reading (progress curve)", "setting": "Time 2641.09 s", "value": "247 and 224 and 233"},
      {"measurement": "Fluorescence reading (progress curve)", "setting": "Time 2671.11 s", "value": "253 and 225 and 235"},
      {"measurement": "Fluorescence reading (progress curve)", "setting": "Time 2701.12 s", "value": "253 and 223 and 234"},
      {"measurement": "Fluorescence reading (progress curve)", "setting": "Time 2731.13 s", "value": "251 and 224 and 234"},
      {"measurement": "Fluorescence reading (progress curve)", "setting": "Time 2761.14 s", "value": "248 and 224 and 234"},
      {"measurement": "Fluorescence reading (progress curve)", "setting": "Time 2791.15 s", "value": "252 and 224 and 233"},
      {"measurement": "Fluorescence reading (progress curve)", "setting": "Time 2821.16 s", "value": "247 and 224 and 234"},
      {"measurement": "Fluorescence reading (progress curve)", "setting": "Time 2851.18 s", "value": "249 and 223 and 233"}
    ]}
  ]
}
